Data published in patent EP4669352A1.

What was measured:
[1] = target: D8 protein (vaccinia virus); assay: ELISA on recombinant protein
[2] = target: D8 protein (vaccinia virus); assay: restated from ELISA/BLI

B1: MV49 (antibody, V domains shown)
VH: QVQLQESGGGLVQPGGSLRLSCAASGFTFSNSWMNWVRQAPGKGPEWVARIKRKADGETADYAASVKGRFAVSRDDSKNTLYLQINSLKSEDTAVYYCTTVPPLYDLFYRGAYYFDSWGQGVLITVSS
VL: QPVLTQPPSVSGSPGQSVTISCTGTSSDIGGYKYVSWYQQHPGTAPKLMIYEVNKRPSGVSDRFSGSKSGNTASLTISGLQAEDEADYYCSAYSTSRTYIFGPGTRVTVL
- binding [1]: binds

B2: MV33 (antibody, V domains shown)
VH: EAQLVESGGGLVHPGGSLRLSCEVSGFTFSNSWMNWVRQAPGKGLECVARIIRNADGETADYAASVRGRFTISRDDPENTLYLRMKSLKTEDTAVYYCTTVPPLSHLFFHETYYFDYWGQGVLVTVSS
VL: QAARTQSPSMSASPGQSVTISCTGTRNDIGGYNYVSWYQQYPGKAPKLMIYDVSKRPSGVSDRFSGSKSGNTASLTISGLQAEDEANYYCSSYAGSNTYVFGSGTKLTIL
- binding [2]: binds
- binding [1]: binds

No constants are given. Whether binding was seen depends on the method and setting. A result given as binding can be weak or reduced; the word gives no strength.
